Measurements: article PMC11880246
Results are given in words; binding and its absence hold for the method and conditions named. Some binding calls cover weakened binding; strength is not graded here.

Molecular target: T1, purified recombinant TMEM41B (not stated (human or mouse cDNA cloned)), Q5BJD5
T1 chain: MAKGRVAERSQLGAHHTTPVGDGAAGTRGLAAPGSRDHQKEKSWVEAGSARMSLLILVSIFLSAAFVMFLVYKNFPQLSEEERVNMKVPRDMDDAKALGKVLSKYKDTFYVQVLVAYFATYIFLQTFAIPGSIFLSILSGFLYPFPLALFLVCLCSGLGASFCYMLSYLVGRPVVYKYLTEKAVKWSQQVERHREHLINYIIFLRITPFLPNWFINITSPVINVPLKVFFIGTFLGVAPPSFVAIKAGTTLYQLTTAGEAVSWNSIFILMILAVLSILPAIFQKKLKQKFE
Assay: native gel or EMSA; purified recombinant TMEM41B on native gels, compared with 25 kDa on denatured gels; both purified
Conditions: remark: other sources report otherwise

B1: purified recombinant TMEM41B, Q5BJD5 1-291 (protein)
chain: T1 chain
binding: binds
